# Only a part is listed here, and it is no random draw.
# Amino acid sequences for entries named in this document (tags omitted). A change or cut given only in a name is not applied to a line headed by its entry.
# UniProt P15104, whole entry: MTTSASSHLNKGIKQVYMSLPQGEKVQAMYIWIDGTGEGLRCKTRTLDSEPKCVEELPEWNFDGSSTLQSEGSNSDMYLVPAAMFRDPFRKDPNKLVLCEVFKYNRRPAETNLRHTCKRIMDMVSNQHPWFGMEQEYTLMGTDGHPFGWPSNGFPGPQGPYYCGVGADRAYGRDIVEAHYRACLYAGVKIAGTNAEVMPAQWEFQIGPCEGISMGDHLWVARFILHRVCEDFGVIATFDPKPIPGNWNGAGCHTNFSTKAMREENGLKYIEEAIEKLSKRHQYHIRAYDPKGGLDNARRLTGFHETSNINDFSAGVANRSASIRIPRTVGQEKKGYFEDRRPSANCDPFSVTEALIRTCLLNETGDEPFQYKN
# UniProt P08133: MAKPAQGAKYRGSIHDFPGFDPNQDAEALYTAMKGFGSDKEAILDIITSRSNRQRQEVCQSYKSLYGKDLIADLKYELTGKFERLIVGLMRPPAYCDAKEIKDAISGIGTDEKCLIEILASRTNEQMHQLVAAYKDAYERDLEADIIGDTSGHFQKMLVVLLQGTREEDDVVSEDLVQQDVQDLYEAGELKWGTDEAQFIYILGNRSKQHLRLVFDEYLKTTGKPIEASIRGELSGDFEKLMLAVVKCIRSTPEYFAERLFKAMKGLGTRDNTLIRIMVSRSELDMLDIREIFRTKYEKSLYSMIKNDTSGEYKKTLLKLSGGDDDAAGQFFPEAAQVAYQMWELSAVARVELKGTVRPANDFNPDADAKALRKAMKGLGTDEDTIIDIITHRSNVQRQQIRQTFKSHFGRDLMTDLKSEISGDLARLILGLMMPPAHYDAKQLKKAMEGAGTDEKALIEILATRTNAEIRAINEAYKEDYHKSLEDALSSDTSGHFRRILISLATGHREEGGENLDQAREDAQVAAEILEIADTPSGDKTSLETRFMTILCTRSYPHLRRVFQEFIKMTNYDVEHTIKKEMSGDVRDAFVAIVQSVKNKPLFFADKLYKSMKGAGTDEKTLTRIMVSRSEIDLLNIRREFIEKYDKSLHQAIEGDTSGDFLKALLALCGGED
# UniProt P08238, whole entry, looked up: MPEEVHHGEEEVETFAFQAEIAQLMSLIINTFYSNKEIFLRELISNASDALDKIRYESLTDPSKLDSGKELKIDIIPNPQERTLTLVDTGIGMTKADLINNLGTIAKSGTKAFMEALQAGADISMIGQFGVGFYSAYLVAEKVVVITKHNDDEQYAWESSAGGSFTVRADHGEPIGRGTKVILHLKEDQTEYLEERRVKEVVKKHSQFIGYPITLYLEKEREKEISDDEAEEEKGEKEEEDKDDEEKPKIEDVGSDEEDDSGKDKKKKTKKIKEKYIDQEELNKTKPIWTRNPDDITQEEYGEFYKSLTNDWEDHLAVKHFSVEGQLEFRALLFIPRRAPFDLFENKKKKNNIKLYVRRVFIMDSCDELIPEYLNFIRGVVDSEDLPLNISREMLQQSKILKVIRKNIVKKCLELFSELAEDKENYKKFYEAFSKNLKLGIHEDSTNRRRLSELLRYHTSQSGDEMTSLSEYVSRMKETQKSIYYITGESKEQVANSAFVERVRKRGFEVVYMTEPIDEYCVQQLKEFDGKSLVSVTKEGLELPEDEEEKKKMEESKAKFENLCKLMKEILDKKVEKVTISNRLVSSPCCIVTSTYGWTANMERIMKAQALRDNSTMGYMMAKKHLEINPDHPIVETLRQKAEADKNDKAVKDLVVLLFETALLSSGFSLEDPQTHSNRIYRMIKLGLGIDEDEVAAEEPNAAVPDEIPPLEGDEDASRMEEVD
# UniProt P14866: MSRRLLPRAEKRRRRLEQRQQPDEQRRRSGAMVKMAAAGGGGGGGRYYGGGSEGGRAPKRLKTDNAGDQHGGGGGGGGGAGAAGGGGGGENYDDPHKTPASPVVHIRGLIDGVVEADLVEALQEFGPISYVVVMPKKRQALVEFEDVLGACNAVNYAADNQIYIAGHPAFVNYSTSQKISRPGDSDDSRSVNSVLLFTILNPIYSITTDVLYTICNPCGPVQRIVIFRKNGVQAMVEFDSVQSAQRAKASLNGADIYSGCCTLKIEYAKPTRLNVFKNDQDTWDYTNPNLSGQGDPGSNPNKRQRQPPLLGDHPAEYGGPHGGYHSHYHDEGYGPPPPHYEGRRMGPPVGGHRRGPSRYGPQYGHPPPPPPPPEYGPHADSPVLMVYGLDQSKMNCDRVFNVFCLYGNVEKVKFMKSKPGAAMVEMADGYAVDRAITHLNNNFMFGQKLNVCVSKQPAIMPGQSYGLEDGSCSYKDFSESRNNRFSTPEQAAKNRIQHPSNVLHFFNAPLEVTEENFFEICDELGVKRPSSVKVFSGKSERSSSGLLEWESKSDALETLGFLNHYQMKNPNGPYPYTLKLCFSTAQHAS
# UniProt P13995: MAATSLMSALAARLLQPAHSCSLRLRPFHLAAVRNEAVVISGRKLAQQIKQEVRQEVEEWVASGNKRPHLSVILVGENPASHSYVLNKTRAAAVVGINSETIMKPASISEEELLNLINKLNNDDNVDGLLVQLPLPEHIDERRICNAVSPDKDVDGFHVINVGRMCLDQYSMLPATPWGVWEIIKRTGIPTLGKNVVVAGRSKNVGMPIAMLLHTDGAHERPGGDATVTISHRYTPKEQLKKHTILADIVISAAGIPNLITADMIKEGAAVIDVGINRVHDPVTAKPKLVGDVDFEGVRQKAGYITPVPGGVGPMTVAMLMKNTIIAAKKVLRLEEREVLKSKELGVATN
# UniProt P13489: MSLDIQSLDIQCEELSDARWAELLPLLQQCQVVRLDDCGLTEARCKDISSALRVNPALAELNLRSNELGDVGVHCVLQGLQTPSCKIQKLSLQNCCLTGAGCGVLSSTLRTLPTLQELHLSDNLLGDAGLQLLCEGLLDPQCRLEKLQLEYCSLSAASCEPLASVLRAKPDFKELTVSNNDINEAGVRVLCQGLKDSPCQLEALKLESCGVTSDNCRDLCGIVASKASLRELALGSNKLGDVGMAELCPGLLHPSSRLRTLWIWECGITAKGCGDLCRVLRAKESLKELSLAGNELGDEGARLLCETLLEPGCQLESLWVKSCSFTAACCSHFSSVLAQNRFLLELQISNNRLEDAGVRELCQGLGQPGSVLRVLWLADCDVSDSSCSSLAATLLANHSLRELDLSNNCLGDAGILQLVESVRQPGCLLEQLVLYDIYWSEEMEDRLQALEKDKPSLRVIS
# UniProt P08651, whole entry: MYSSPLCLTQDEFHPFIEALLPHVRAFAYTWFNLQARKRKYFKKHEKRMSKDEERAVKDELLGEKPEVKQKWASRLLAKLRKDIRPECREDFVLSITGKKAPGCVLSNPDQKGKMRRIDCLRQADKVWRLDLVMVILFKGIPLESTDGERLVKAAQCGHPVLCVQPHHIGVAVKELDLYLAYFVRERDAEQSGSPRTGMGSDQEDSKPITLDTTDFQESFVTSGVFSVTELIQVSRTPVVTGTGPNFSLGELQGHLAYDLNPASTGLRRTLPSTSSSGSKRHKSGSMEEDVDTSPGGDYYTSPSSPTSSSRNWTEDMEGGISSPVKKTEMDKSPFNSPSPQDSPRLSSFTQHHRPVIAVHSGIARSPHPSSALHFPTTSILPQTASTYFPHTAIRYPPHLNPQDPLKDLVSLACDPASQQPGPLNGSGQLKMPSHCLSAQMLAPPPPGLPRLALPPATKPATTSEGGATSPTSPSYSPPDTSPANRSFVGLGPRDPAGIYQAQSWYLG
# UniProt P14316: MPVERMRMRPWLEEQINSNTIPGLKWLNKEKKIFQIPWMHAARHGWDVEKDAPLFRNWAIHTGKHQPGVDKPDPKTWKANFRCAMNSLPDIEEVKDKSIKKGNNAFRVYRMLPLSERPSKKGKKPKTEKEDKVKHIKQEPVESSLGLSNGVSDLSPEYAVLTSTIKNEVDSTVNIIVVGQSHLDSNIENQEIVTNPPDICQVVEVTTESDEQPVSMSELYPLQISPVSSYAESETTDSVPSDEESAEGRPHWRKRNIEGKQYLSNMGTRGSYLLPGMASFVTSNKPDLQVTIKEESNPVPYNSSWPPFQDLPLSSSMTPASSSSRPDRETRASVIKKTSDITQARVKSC
# UniProt P09622, whole entry, looked up: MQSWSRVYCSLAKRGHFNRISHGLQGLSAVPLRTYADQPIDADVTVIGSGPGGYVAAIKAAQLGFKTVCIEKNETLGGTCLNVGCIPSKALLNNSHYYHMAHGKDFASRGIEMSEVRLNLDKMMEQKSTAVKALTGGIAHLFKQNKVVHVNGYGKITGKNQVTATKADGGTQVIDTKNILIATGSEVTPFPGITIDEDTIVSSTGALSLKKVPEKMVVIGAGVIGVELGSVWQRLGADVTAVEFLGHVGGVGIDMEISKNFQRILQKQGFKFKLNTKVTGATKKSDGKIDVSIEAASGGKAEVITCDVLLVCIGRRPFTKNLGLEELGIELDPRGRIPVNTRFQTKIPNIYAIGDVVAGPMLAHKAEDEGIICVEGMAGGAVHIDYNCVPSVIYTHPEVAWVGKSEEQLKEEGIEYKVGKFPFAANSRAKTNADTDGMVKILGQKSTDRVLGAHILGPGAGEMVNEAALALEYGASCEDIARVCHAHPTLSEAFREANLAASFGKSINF
# UniProt P17544: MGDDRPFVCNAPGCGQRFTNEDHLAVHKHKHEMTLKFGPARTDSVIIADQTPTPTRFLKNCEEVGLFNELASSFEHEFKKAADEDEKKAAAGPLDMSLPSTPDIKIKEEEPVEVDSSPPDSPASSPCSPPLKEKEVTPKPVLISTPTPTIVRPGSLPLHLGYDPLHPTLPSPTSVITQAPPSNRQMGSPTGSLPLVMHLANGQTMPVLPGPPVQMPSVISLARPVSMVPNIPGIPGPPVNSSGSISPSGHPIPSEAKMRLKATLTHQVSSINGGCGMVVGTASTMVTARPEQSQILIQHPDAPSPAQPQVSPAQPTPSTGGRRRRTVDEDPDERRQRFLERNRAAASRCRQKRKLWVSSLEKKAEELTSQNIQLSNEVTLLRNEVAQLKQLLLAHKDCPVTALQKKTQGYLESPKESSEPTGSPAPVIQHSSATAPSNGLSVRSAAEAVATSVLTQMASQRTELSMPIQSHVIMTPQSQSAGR
# UniProt P15531, whole entry, looked up: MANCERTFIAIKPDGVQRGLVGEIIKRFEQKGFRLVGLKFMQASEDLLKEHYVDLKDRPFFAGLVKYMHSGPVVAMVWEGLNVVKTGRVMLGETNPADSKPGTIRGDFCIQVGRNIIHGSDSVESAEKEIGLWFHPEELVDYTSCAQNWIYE
# UniProt P11802: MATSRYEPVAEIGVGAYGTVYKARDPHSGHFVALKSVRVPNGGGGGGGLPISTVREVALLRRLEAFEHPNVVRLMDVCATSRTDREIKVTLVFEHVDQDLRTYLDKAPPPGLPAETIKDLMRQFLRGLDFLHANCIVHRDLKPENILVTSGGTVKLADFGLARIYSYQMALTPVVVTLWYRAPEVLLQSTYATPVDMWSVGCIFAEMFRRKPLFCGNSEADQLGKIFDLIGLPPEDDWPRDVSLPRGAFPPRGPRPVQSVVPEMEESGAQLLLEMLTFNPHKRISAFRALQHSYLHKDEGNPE
# UniProt P08559, whole entry: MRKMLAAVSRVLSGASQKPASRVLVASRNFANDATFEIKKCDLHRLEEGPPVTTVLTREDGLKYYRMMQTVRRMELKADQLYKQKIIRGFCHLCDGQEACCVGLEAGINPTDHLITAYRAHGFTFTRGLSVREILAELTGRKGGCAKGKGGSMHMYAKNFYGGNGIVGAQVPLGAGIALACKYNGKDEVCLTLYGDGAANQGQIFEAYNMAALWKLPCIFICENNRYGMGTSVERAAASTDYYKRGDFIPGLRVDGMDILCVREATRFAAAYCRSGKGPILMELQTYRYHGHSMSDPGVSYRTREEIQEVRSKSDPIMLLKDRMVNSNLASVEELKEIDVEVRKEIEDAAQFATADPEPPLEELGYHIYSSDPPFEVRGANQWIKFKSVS
# Compound: COC(=O)C#Cc1ccccc1 [methyl 3-phenylpropiolate]
# Assay: log2 ratio of iodoacetamide-alkyne labeling of the cysteine site, DMSO over compound (competition); higher = stronger covalent engagement of the cysteine by the compound, active = 1 or more
# Conditions: 500 µM; treatment time 1 h; system: HEK293T cell lysate
# In short: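 HEK293T lysate (2 mg/mL) was incubated with electrophile (500 µM) or vehicle for 1 h at ambient temperature and then with iodoacetamide alkyne for 1 h. Labelled proteins were clicked to sCIP-TMT reagents, pooled, digested, enriched on streptavidin and measured by Orbitrap Eclipse LC-MS/MS with FAIMS, with FragPipe quantification. The per-cysteine log2 competition ratio is mean control-channel reporter intensity over mean compound-channel reporter intensity. Across three replicates with duplicate channels, cysteines quantified in only one replicate were excluded.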
row,Target,log2 ratio of iodoacetamide-alkyne labeling
1,DDX5 C191 (UniProt P17844),inactive: 0.0899
2,GLUL C359 (UniProt P15104),inactive: 0.402
3,ANXA6 C248 (UniProt P08133),inactive: -0.142
4,HSP90AB1 C521 (UniProt P08238),inactive: 0.298
5,HNRNPL C452 (UniProt P14866),inactive: 0.0699
6,MTHFD2 C166 (UniProt P13995),inactive: 0.25
7,MTHFD1 C408 (UniProt P11586),inactive: -0.04
8,RNH1 C45 (UniProt P13489),inactive: 0.383
9,NFIC C88 (UniProt P08651),inactive: 0.217
10,IRF2 C83 (UniProt P14316),inactive: -0.0958
11,DLD C484 (UniProt P09622),inactive: 0.167
12,HSPD1 C442 (UniProt P10809),active: 1.2
13,UniProt P17252_C499,inactive: -0.0376
14,ATF7 C61 (UniProt P17544),inactive: 0.484
15,NME1 C145 (UniProt P15531),inactive: -0.0228
16,CDK4 C215 (UniProt P11802),inactive: 0.304
17,ESD C181 (UniProt P10768),inactive: 0.0307
18,PDHA1 C261 (UniProt P08559),inactive: -0.175
19,MTHFD1 C143 (UniProt P11586),inactive: -0.0254
20,IMPDH2 C331 (UniProt P12268),inactive: 0.465
21,HSP90AB1 C589 (UniProt P08238),inactive: 0.0899
22,RPS17 C35 (UniProt P08708),inactive: -0.00485

# 2 entries drawn at random from the list so far, as already listed:
row,Target,log2 ratio of iodoacetamide-alkyne labeling
17,ESD C181 (UniProt P10768),inactive: 0.0307
22,RPS17 C35 (UniProt P08708),inactive: -0.00485
